Experimental data: PubChem BioAssay AID1159578 (Peter MacCallum Cancer Centre, 2015)
Purpose: 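siRNA pools altering how lymphatic endothelial cells close a scratch wound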 (primary screen). System: human lymphatic endothelial cells. Knock-down reagent: siRNA pool against human genes, 40 nM. Time to read-out: 48 h after transfection. Read-out: 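Cells stained with dye and imaged after a scratch; covered wound area and nuclei counted, duplicates averaged, migration set against mock wells and turned into a robust z-score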. Direction: migration robust z-score: higher = faster migration into the scratch; nuclei per well: higher = more cells in the well. Call rule: 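Pools averaging fewer than 3300 nuclei are never called; remaining pools count as changed when migration robust z lies outside -2 to 2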. Calls: active = migration changed; inactive = no migration change, or too few cells.
Shown is one part, drawn at random, of about 18,000 deposited reagents. Of all reagents, about 1,030 (5.7%) were called active. 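Inactive calls also include pools with fewer than 3300 nuclei, whose migration was not assessed.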 The raw values are shown without normalisation. Unmarked entries are inactive. Further read-outs or replicates are left out here.

TMEM74 (GeneID 157753) gave migration robust z-score -2.14 (active); migration class with cell-count check migration z below -2; enough cells; nuclei per well, duplicate mean 3397. Knock-down of DKK3 (GeneID 27122) gave: migration robust z-score 0.52; migration class with cell-count check migration z between -2 and 2; enough cells; nuclei per well, duplicate mean 5597. HR (GeneID 55806) showed migration robust z-score -0.46; migration class with cell-count check migration z between -2 and 2; enough cells; nuclei per well, duplicate mean 5282. Against GLB1 (GeneID 2720) the deposit lists migration robust z-score 2.04 (active); migration class with cell-count check migration z above 2; enough cells; nuclei per well, duplicate mean 5372. C1D (GeneID 10438) showed migration robust z-score 0.6; migration class with cell-count check migration z between -2 and 2; enough cells; nuclei per well, duplicate mean 5924. MICALL1 (GeneID 85377) showed migration robust z-score 0.36; migration class with cell-count check migration z between -2 and 2; enough cells; nuclei per well, duplicate mean 5502.

Knock-down of MPPE1 (GeneID 65258) resulted in: migration robust z-score 1.22; migration class with cell-count check migration z between -2 and 2; enough cells; nuclei per well, duplicate mean 5938. For FJX1 (GeneID 24147), the entry reads migration robust z-score -0.56; migration class with cell-count check migration z between -2 and 2; enough cells; nuclei per well, duplicate mean 4922. With knock-down of ERCC3 (GeneID 2071), the record shows migration robust z-score 0.18; migration class with cell-count check migration z between -2 and 2; enough cells; nuclei per well, duplicate mean 4410. RUSF1 (GeneID 64755) showed migration robust z-score 0.64; migration class with cell-count check migration z between -2 and 2; enough cells; nuclei per well, duplicate mean 5221. Against CFAP141 (GeneID 388701), the values are migration robust z-score -0.92; migration class with cell-count check migration z between -2 and 2; enough cells; nuclei per well, duplicate mean 4370. With knock-down of MOCS2 (GeneID 4338), the record shows migration robust z-score 1.06; migration class with cell-count check migration z between -2 and 2; enough cells; nuclei per well, duplicate mean 6667.

AIMP1 (GeneID 9255) gave migration robust z-score -0.21; migration class with cell-count check migration z between -2 and 2; enough cells; nuclei per well, duplicate mean 4814. NKX2-1 (GeneID 7080) scored migration robust z-score -1.84; migration class with cell-count check migration z between -2 and 2; enough cells; nuclei per well, duplicate mean 5619. Depletion of FTL (GeneID 2512) gave: migration robust z-score 0.78; migration class with cell-count check migration z between -2 and 2; enough cells; nuclei per well, duplicate mean 6122. Against YIPF2 (GeneID 78992), the entry reads migration robust z-score 0.6; migration class with cell-count check migration z between -2 and 2; enough cells; nuclei per well, duplicate mean 5494. FTO (GeneID 79068) scored migration robust z-score -0.22; migration class with cell-count check migration z between -2 and 2; enough cells; nuclei per well, duplicate mean 5300. POGK (GeneID 57645) scored migration robust z-score -1.77; migration class with cell-count check migration z between -2 and 2; enough cells; nuclei per well, duplicate mean 5364.

After knock-down of OR5M10 (GeneID 390167) the results were migration robust z-score 0.11; migration class with cell-count check migration z between -2 and 2; enough cells; nuclei per well, duplicate mean 6996. TUSC1 (GeneID 286319) showed migration robust z-score 2.1 (active); migration class with cell-count check migration z above 2; enough cells; nuclei per well, duplicate mean 5514. After knock-down of WNT7A (GeneID 7476), the record shows migration robust z-score -0.91; migration class with cell-count check migration z between -2 and 2; enough cells; nuclei per well, duplicate mean 6138.

An excerpt from above, reduced to “migration class with cell-count check”.
TUSC1 (GeneID 286319) = migration z above 2; enough cells (active)
WNT7A (GeneID 7476) = migration z between -2 and 2; enough cells
